Experimental data taken from US20230181692A1, “COMPOSITIONS FOR USE IN THE TREATMENT OF NEUROLOGICAL DISEASE” (University of Ulster, priority 2016, published 2023).
Several values for one entry are separate records, joined by “and”; a condition that tells them apart may be missing. Equal entries are not always repeated. Entries after “also recorded” stand apart in the source; their conditions may differ. For at least one compound, name, drawing or mass did not settle the structure.

Key:
[1] = test system: APP/PS1 mice; test: Morris water maze; format: in vivo
[2] = test system: wild-type mice; test: Morris water maze; format: in vivo
[3] = test system: wild-type mice; test: Open field task (locomotor function and anxiety); format: in vivo; conditions: acute; wild-type mice vs APP/PS1 saline-treated group
[4] = test system: APP/PS1 mice; test: Human APP ELISA of brain extract (total brain APP); format: in vivo; conditions: 10 weeks, vs saline treated APP/PS1 mice
[5] = test system: wild-type mice; test: Reversal water maze; format: in vivo
[6] = test system: C57Bl/6 mice; test: In vivo LTP recording in hippocampus area CA1 (dose response study); conditions: vs saline-treated mice
[7] = test system: APP/PS1 mice; test: Beta amyloid plaque load immunohistochemistry (cerebral cortex); format: in vivo
[8] = test system: APP/PS1 mice; test: Synaptophysin staining (synapse density) in brain sections; format: in vivo; conditions: treated APP/PS1 mice, 10 weeks
[9] = test system: APP/PS1 mice; test: Aggregated Aβ oligomer sandwich ELISA of brain extract; format: in vivo; conditions: 10 weeks, vs saline-treated controls (Tukey)
[10] = test system: APP/PS1 mice; test: Open field task (locomotor function and anxiety); format: in vivo; conditions: acute
[11] = test system: APP/PS1 mice; test: Dense core congophilic plaque load (Congo red staining); format: in vivo; conditions: i.p. once daily 10 weeks, vs saline-treated APP/PS1 mice
[12] = test system: APP/PS1 mice; test: Aβ1-40 sandwich ELISA of brain extract; format: in vivo; conditions: 10 weeks, vs saline treated APP/PS1 mice
[13] = test system: APP/PS1 mice; test: GFAP staining (astrocytes); format: in vivo; conditions: once daily 10 weeks, vs APP/PS1 saline
[14] = test system: APP/PS1 mice; test: Reversal water maze; format: in vivo
[15] = test system: APP/PS1 mice; test: Aβ1-42 sandwich ELISA of brain extract; format: in vivo; conditions: 10 weeks, vs saline treated APP/PS1 mice
[16] = test system: APP/PS1 mice; test: Novel object recognition task; format: in vivo; conditions: chronic, 67 days administration
[17] = test system: wild-type mice; test: Doublecortin staining (neurogenesis) in dentate gyrus; format: in vivo; conditions: once daily 10 weeks, vs APP/PS1 saline
[18] = test system: APP/PS1 mice; test: Iba1 staining (microglia, inflammation); format: in vivo; conditions: once daily 10 weeks, vs APP/PS1 saline
[19] = test system: APP/PS1 mice; test: Doublecortin staining (neurogenesis) in dentate gyrus; format: in vivo; conditions: 10 weeks

## CCCCCCCCCCCCCCCC(=O)N[C@@H](CCC(=O)NCCCC[C@H](NC(=O)[C@H](C)NC(=O)[C@H](C)NC(=O)[C@H](CCC(N)=O)NC(=O)CNC(=O)[C@H](CCC(=O)O)NC(=O)[C@H](CC(C)C)NC(=O)[C@H](Cc1ccc(O)cc1)NC(=O)[C@H](CO)NC(=O)[C@H](CO)NC(=O)[C@@H](NC(=O)[C@H](CC(=O)O)NC(=O)[C@H](CO)NC(=O)[C@@H](NC(=O)[C@H](Cc1ccccc1)NC(=O)[C@@H](NC(=O)CNC(=O)[C@H](CCC(=O)O)NC(=O)[C@H](C)NC(=O)[C@@H](N)Cc1cnc[nH]1)[C@@H](C)O)[C@@H](C)O)C(C)C)C(=O)N[C@@H](CCC(=O)O)C(=O)N[C@@H](Cc1ccccc1)C(=O)N[C@H](C(=O)N[C@@H](C)C(=O)N[C@@H](Cc1c[nH]c2ccccc12)C(=O)N[C@@H](CC(C)C)C(=O)N[C@H](C(=O)N[C@@H](CCCNC(=N)N)C(=O)NCC(=O)N[C@@H](CCCNC(=N)N)C(=O)NCC(=O)O)C(C)C)[C@@H](C)CC)C(=O)O [liraglutide]
[1]; 60 days treatment
  Morris water maze probe trial, time spent in each quadrant: spent significantly more time in the target quadrant
[1]; after 8 weeks treatment, vs APP/PS1 saline
  Morris water maze escape latency: overall difference in escape latency
[2]; 60 days treatment
  Morris water maze probe trial, time in target quadrant vs CCW, OPP and CW quadrants: spent significantly more time in the target quadrant
[2]; after 8 weeks treatment
  Morris water maze acquisition phase (escape latency, path length, speed): no significant difference
[3]
  open field rearing behaviour: significantly reduced
[4]
  total brain APP: did not altar; also recorded: did not significantly alter; also recorded: unchanged
[5]; 65 days treatment
  reversal probe trial, time in target quadrant vs other quadrants: spent significantly more time in the target quadrant
[5]; vs wild-type saline
  reversal water maze swimming speed: significant difference
[5]; vs wild-type saline treated mice
  reversal water maze path length to the escape platform: significantly reduced
[6]; 0.25 nmol/kg once daily for 21 days
  LTP in CA1 of the hippocampus after high frequency stimulation: potentiated the induction and maintenance of LTP; also recorded: increased induction of LTP
[6]; 2.5 nmol/kg once daily for 21 days
  LTP in CA1 of the hippocampus after high frequency stimulation: potentiated the induction and maintenance of LTP; also recorded: highly significant increase in LTP
[6]; 25 nmol/kg once daily for 21 days
  LTP in CA1 of the hippocampus after high frequency stimulation: potentiated the induction and maintenance of LTP; also recorded: significantly increased inducibility of LTP
[7]; 10 weeks treatment
  beta amyloid plaque load, liraglutide vs NAcGIP[Lys(37)PAL] treated mice: significantly reduced plaque load
[7]; i.p. once daily 10 weeks, vs saline-treated APP/PS1 mice
  beta amyloid plaque load reduction: 39%
[8]; vs Xenin-25[Lys(13)PAL]-treated wild-type mice
  synaptophysin staining levels in the exterior cortex: significantly reduced
[8]; vs all groups of wild-type mice
  synaptophysin staining levels in the interior cortex: equivalent to all groups of wild-type mice
[8]; vs wild-type controls
  synaptophysin staining in the interior and exterior cortex: equivalent to wild-type controls
[9]
  soluble Aβ oligomer levels: significantly reduced
[10]; APP/PS1 mice vs APP/PS1 saline-treated mice
  open field time spent in the centre of the arena: significantly reduced
[10]; APP/PS1 mice vs all but the wild-type liraglutide-treated group
  open field rearing behaviour: significantly reduced
[11]
  dense core congophilic plaque load reduction: 36% and 43%
[12]
  Aβ1-40 levels: increased; also recorded: did not significantly alter; also recorded: significant increase
[13]
  GFAP levels in the cortex: significantly lower
[14]
  reversal water maze path length, liraglutide vs NAcGIP[Lys(37)PAL]-treated mice: significant difference
[14]; 65 days treatment
  reversal probe trial, time spent in each quadrant: spent significantly more time in the target quadrant
[14]; 65 days treatment, vs APP/PS1 saline-treated controls
  reversal probe trial, time in the exact platform location (spatial acuity): significantly more time
[14]; after 61 days treatment, vs APP/PS1 saline-treated controls
  reversal water maze escape latency: overall difference in escape latency
[14]; vs APP/PS1 saline-treated controls
  reversal water maze path length: not significantly different
[15]
  Aβ1-42 levels: did not altar; also recorded: did not significantly alter
[16]
  novel object recognition memory (novel vs familiar object): restored object recognition memory
[17]
  neurogenesis (doublecortin) in treated wild-type mice: enhanced neurogenesis
[18]
  Iba1 levels in the dentate gyrus: significantly lower
  Iba1 staining in the cortex: significantly reduced
[19]; t-test of each drug-treated group vs saline treated APP/PS1 mice
  doublecortin neurons, t-test: significantly more
[19]; vs saline-treated APP/PS1 mice (ANOVA)
  doublecortin positive neurons / neurogenesis: no significant differences; also recorded: moderately enhanced the number of doublecortin-positive neurons in the dentate gyrus, however the differences were not significant
